PMC6291168
Results are given in words; binding and its absence hold for the method and conditions named. In cells and extracts the contact can be indirect. Some results given as binding are weak or reduced against the parent protein; the word gives no strength. Sequences can lack the tags named with a protein.

T1: Myc-tagged Erg (pEF6-Erg) (mouse) (UniProt P81270)
T1 sequence: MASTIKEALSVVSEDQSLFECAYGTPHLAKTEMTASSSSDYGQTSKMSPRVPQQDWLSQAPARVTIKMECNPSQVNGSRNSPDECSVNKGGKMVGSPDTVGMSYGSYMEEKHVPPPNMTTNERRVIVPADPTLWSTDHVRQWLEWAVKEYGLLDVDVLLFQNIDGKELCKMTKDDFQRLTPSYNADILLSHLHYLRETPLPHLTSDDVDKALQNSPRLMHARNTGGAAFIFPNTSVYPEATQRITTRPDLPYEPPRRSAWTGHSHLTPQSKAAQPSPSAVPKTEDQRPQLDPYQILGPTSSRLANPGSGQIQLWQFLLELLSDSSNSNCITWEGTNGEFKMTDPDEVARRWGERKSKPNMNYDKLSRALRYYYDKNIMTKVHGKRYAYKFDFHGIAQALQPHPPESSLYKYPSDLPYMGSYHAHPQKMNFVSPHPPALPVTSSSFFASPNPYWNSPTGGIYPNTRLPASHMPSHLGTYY

T2: Flag-tagged Fli1 (pFlag-CMV2-Fli1) (mouse) (UniProt P26323)
T2 sequence: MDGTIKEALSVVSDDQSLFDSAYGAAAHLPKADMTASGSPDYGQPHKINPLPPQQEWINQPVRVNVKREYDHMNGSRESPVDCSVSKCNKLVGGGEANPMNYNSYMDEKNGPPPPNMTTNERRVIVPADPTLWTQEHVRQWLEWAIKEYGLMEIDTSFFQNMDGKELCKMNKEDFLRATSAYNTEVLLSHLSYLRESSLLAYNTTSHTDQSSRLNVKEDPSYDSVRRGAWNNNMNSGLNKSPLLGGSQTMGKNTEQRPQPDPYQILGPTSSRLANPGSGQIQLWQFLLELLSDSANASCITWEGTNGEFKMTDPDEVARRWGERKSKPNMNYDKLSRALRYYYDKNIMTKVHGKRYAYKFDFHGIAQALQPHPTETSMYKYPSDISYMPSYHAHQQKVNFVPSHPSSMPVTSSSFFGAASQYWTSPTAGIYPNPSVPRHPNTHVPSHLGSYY

B1: Flag-tagged Fli1 (pFlag-CMV2-Fli1) (protein, UniProt P26323 1-452)
chain: MDGTIKEALSVVSDDQSLFDSAYGAAAHLPKADMTASGSPDYGQPHKINPLPPQQEWINQPVRVNVKREYDHMNGSRESPVDCSVSKCNKLVGGGEANPMNYNSYMDEKNGPPPPNMTTNERRVIVPADPTLWTQEHVRQWLEWAIKEYGLMEIDTSFFQNMDGKELCKMNKEDFLRATSAYNTEVLLSHLSYLRESSLLAYNTTSHTDQSSRLNVKEDPSYDSVRRGAWNNNMNSGLNKSPLLGGSQTMGKNTEQRPQPDPYQILGPTSSRLANPGSGQIQLWQFLLELLSDSANASCITWEGTNGEFKMTDPDEVARRWGERKSKPNMNYDKLSRALRYYYDKNIMTKVHGKRYAYKFDFHGIAQALQPHPTETSMYKYPSDISYMPSYHAHQQKVNFVPSHPSSMPVTSSSFFGAASQYWTSPTAGIYPNPSVPRHPNTHVPSHLGSYY
B2: Myc-tagged Erg (pEF6-Erg) (protein, UniProt P81270-4 1-479)
chain: MASTIKEALSVVSEDQSLFECAYGTPHLAKTEMTASSSSDYGQTSKMSPRVPQQDWLSQAPARVTIKMECNPSQVNGSRNSPDECSVNKGGKMVGSPDTVGMSYGSYMEEKHVPPPNMTTNERRVIVPADPTLWSTDHVRQWLEWAVKEYGLLDVDVLLFQNIDGKELCKMTKDDFQRLTPSYNADILLSHLHYLRETPLPHLTSDDVDKALQNSPRLMHARNTGGAAFIFPNTSVYPEATQRITTRPDLPYEPPRRSAWTGHSHLTPQSKAAQPSPSAVPKTEDQRPQLDPYQILGPTSSRLANPGSGQIQLWQFLLELLSDSSNSNCITWEGTNGEFKMTDPDEVARRWGERKSKPNMNYDKLSRALRYYYDKNIMTKVHGKRYAYKFDFHGIAQALQPHPPESSLYKYPSDLPYMGSYHAHPQKMNFVSPHPPALPVTSSSFFASPNPYWNSPTGGIYPNTRLPASHMPSHLGTYY

What was measured:
[1] = molecular target: T1, Myc-tagged Erg (pEF6-Erg) (mouse); experiment: co-IP; Cos-7 cells co-transfected with Myc-Erg and Flag-Fli1, 24 h; NP40 lysis buffer (0.5% NP-40, 50 mM Tris-HCl, 50 mM NaCl, 1 mM EDTA); IP with anti-Myc or anti-Flag overnight, Protein G beads; immunoblot with anti-Myc-Tag or anti-Flag
[2] = molecular target: T2, Flag-tagged Fli1 (pFlag-CMV2-Fli1) (mouse); experiment: as above

Binder	binding [1]	binding [2]
B1	binds	
B2		binds
